Measured values reported in PubChem BioAssay AID590 (National Center for Advancing Translational Sciences (NCATS), 2007).
Hit rate of the full screen: of about 59,000 compounds, about 6,500 (11%) were called active. The inconclusive results got no clear call from the source; some entries with a clear call stand among them for comparison. Cut-off read from the data, not from the text of the source: active = max dye-equivalent concentration above about 10 nM; inconclusive = mostly about 1.1 nM to 9.6 nM; inactive = weaker than that.

test: qHTS Assay for Spectroscopic Profiling in A350 Spectral Region; conditions: Compound autofluorescence, 340/450 nm, Alexa 350 dye-equivalents; stronger effect = higher value

SMILES | max dye-equivalent concentration
COc1ccccc1CCNC(=O)C1CCCO1 (configuration not stated) | inactive
COC(=O)c1cnn2c(C(F)(F)F)cc(-c3ccc(F)cc3)nc12 | active: 59 nM
COCCOC(=O)C1=C(C)Nc2nc(C)nn2C1c1ccccc1 (configuration not stated) | inactive
Nc1nc2n(n1)C(c1cccs1)CC(c1ccccc1)N2 (configuration not stated) | inconclusive: 10 nM
O=C(NCc1ccccc1)NC1(C(=O)N2CCN(c3ccccc3)CC2)CCCCC1 | inactive
CCOC(=O)c1cc2c(=O)n3ccccc3nc2n(Cc2ccco2)c1=NC(=O)c1cccnc1 | active: 120 nM
Nc1c(-c2ccccc2)n[nH]c1-c1ccccc1 | inconclusive: 1.5 nM
CSc1nc(C)cc(OCC(=O)n2nc(C)cc2C)n1 | inconclusive: 2 nM
C1=CC2CC1CC2CN1CCN(c2ccccc2)CC1 (configuration not stated) | inconclusive: 8.7 nM
CCCSc1nc2c(c(=O)[nH]c(=O)n2C)n1CCc1ccccc1 | inactive
CSC(=NCc1cccnc1)NS(=O)(=O)c1cccs1 | inconclusive: 2.1 nM
CCC(=O)Oc1oc(-c2ccccc2)nc1C=Nc1ccccc1OC | inconclusive: 1.3 nM
COc1ccc(Br)cc1CNC(=O)C1CCN(S(=O)(=O)N2CCCC2)CC1 | inactive
O=C(c1cc2ccccc2oc1=O)N1CCN(C(=O)C2CCCO2)CC1 (configuration not stated) | inconclusive: 5.1 nM
COc1ccccc1-n1nnnc1SCC(=O)NC1CCCC1 | inconclusive: 1.3 nM
Cc1cc2ncn(-c3ncnc4sc(C)c(C)c34)c2cc1C | inconclusive: 1.4 nM
O=C(O)CSc1nnc(Cn2nnc3ccccc32)n1CCc1ccccc1 | inconclusive: 3.9 nM
Cc1ccc(OCC(=O)N2CCCCCC2)c(C)c1 | inconclusive: 1.3 nM
CCN(CC)c1ccc2oc(=O)c(C)nc2c1 | inconclusive: 3.7 nM
Nc1nc2ccc(Oc3ccccc3)cc2s1 | inactive
CCOC(=O)c1oc2cccc(OCC(O)CNC(C)C)c2c1C (configuration not stated) | inconclusive: 2.1 nM

SMILES | max dye-equivalent concentration
O=c1c2ccccc2nc(-c2ccco2)n1/N=C/c1ccco1 | inactive
Cc1c(C(=O)CN2CCOCC2)[nH]c2ccccc12 | inconclusive: 1.1 nM
OC(CNCCCN1CCCCC1)COc1ccccc1 (configuration not stated) | inconclusive: 2.5 nM
c1ccc(-c2nn3c(C4CCCCC4)nnc3s2)nc1 | inconclusive: 6.4 nM
Cc1c(NC(=O)N2CCCCCC2)c(=O)n(-c2ccccc2)n1C | inconclusive: 1.1 nM
Cc1nc2oc3c(NCc4ccccn4)ncnc3c2c2c1COC(C)(C)C2 | inconclusive: 2.7 nM
Cc1ccc(Cl)cc1N1CCN(C(=O)Cn2ccc3ccccc3c2=O)CC1 | inactive
CC(C)OC(=O)c1cccnc1SCc1cc(=O)n2ccccc2n1 | inconclusive: 6.6 nM
c1coc(-c2nnc(SCc3nc4ccccc4[nH]3)o2)c1 | inconclusive: 5 nM
CCc1ccc(NC(=O)Cn2c(SC)nc3ccccc32)cc1 | inconclusive: 1.1 nM
O=C(c1ccccc1)c1nc[nH]c1C(=O)Nc1ccccc1 | active: 20 nM
O=c1[nH]c2ccsc2c(=O)n1-c1ccc(F)cc1 | inconclusive: 1.6 nM
COc1ccc(C(c2nnnn2Cc2cccs2)N2CCN(c3ccc(F)cc3)CC2)cc1OC (configuration not stated) | inconclusive: 3.2 nM
CN(c1ccc(C(=O)NC2CC2)cc1)S(=O)(=O)c1ccccc1 | inconclusive: 1.1 nM
CCc1ccc(NS(=O)(=O)c2ccc3[nH]cc(C(=O)NCC4CCCO4)c(=O)c3c2)cc1 (configuration not stated) | inactive
CN1CCN(c2nc(N3CCN(c4ccccc4)CC3)ncc2F)CC1 | inconclusive: 6.9 nM
CC(=O)Nc1ccc2oc(-c3ccccc3Br)nc2c1 | inconclusive: 9.1 nM
Cc1cnc(C(=O)OCC(=O)NC2CCCCC2)cn1 | inactive
Cc1cc(SCC(=O)c2ccccc2)nc2ccccc12 | inactive
CCCNc1ncccc1C(N)=O | active: 210 nM
CCCOc1ccc2oc(=O)c3c(c2c1)CCCN3C(=O)CN1CCN(c2ncccn2)CC1 | active: 57 nM

SMILES | max dye-equivalent concentration
COc1ccc(N2CCN(Cc3cc(=O)oc4ccc5ccccc5c34)CC2)cc1 | inconclusive: 3.3 nM
CCCCn1c(C(C)NC(=O)COC)nc2ccccc21 (configuration not stated) | inactive
COCc1nnc(NS(=O)(=O)c2ccc(Br)cc2)s1 | inactive
O=C(NC1CCCCC1)N1CCN(Cc2nc3ccccc3c(=O)[nH]2)CC1 | inconclusive: 3.2 nM
O=C(Cc1c(O)c2ccccc2[nH]c1=O)NCc1ccccc1F | inactive
O=C(O)C1Nc2c(O)cccc2C2C=CCC12 (configuration not stated) | inactive
O=c1c2ccccc2c(C=Nc2ccc(Cl)cn2)c(O)n1-c1cc(Cl)ccc1N1CCOCC1 | active: 16 nM
Cc1nc2c(sc3nc4c(cc32)COC(C)(C)C4)c(=O)n1CC(=O)NCc1ccco1 | inconclusive: 4.7 nM
CCOc1ccc(NC(=O)CSc2nnc(-c3ccccc3Cl)n2Cc2ccco2)cc1 | inconclusive: 1.1 nM
CSc1ccccc1C(=O)Nc1cccc(C(C)O)c1 (configuration not stated) | inactive
COc1cccc(Cn2c(=O)c(-c3cc(F)cc(F)c3)nc3cncnc32)c1 | inactive
c1ccc(CCN2CCN=C2Cc2ccccc2)cc1 | inactive
Cc1nnc(NC(=O)C2(c3ccccc3)CCOCC2)s1 | inconclusive: 5.6 nM
CC(=O)[C@@]1(O)CC[C@H]2[C@H]3C[C@@H](C)C4=CC(=O)C=C[C@]4(C)[C@@]3(F)[C@@H](O)C[C@]21C | inactive
COc1ccccc1NC(=O)CC(NCc1ccccc1)C(=O)O (configuration not stated) | inactive
CCCOc1ccc(N2C(=O)CC(N3CCCC(C(=O)N4CCCC4)C3)C2=O)cc1 (configuration not stated) | inconclusive: 1.2 nM
Cc1cc(=O)[nH]c(SCc2nc3ncccn3c2Br)n1 | active: 330 nM
CC(=O)[C@H](C(=N)C#N)C(=O)Nc1ccccc1 | inactive
CCCc1ccc(C(C)NC(=O)c2cnccn2)cc1 (configuration not stated) | inconclusive: 2.2 nM
CN(C(=O)CSc1nnnn1-c1ccccc1)C1CCCCC1 | inactive

Some values from the results shown:
Value of CCOc1ccc(NC(=O)CSc2nnc(-c3ccccc3Cl)n2Cc2ccco2)cc1 under max dye-equivalent concentration: inconclusive: 1.1 nM
Value of CC(=O)[C@@]1(O)CC[C@H]2[C@H]3C[C@@H](C)C4=CC(=O)C=C[C@]4(C)[C@@]3(F)[C@@H](O)C[C@]21C under max dye-equivalent concentration: inactive
Value of COCc1nnc(NS(=O)(=O)c2ccc(Br)cc2)s1 under max dye-equivalent concentration: inactive
